{"source": "patent US20080032989A1", "about": "“Method of treating inflammatory diseases using tyroskine kinase inhibitors” (priority 2006, published 2008)", "origin": "cited, not measured here", "tested_on": "PDGFR", "settings": "Table 7; cited from earlier work"}
{"smiles": "CO[C@@H]1[C@H](N(C)C(=O)c2ccccc2)C[C@H]2O[C@]1(C)n1c3ccccc3c3c4c(c5c6ccccc6n2c5c31)C(=O)NC4", "note": "[PKC412]", "values": [{"measurement": "PDGFR Inhibitory profile (with IC50s when available)", "result": "potent"}]}
